Assay results reported in patent US20110123984A1.
Results are given in words; binding and its absence hold for the method and conditions named. For some assays here: Binding seen in cells or lysates may run through a third protein. Some results given as binding are weak or reduced against the parent protein; the word gives no strength. Where a sequence is shown, tags or fusion partners need not be part of it.

T1: Myc-tagged CALHM1 (human) (UniProt Q8IU99)
T1 sequence: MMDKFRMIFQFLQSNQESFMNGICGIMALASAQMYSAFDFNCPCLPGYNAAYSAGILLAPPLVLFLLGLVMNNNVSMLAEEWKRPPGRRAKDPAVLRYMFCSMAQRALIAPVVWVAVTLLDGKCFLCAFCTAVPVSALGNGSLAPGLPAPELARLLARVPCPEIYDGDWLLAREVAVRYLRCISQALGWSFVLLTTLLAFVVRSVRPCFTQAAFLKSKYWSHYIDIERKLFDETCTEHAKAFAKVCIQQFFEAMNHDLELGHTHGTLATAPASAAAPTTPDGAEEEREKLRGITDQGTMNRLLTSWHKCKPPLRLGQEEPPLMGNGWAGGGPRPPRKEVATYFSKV


Key:
[1] = target: T1, Myc-tagged CALHM1 (human); assay: co-immunoprecipitation with immobilized anti-Myc antibody from lysates of co-transfected HEK293 cells, western blot with anti-V5
[2] = target: T1, Myc-tagged CALHM1 (human); assay: non-reducing SDS-PAGE and anti-Myc western blot of lysates of Myc-CALHM1-transfected HEK293 cells

binding [1]	binding [2]	Binder
binds	–	V5-tagged CALHM1 (protein, not shown: small tags and cut ends) MMDKFRMIFQFLQSNQESFMNGICGIMALASAQMYSAFDFNCPCLPGYNAAYSAGILLAPPLVLFLLGLVMNNNVSMLAEEWKRPPGRRAKDPAVLRYMFCSMAQRALIAPVVWVAVTLLDGKCFLCAFCTAVPVSALGNGSLAPGLPAPELARLLARVPCPEIYDGDWLLAREVAVRYLRCISQALGWSFVLLTTLLAFVVRSVRPCFTQAAFLKSKYWSHYIDIERKLFDETCTEHAKAFAKVCIQQFFEAMNHDLELGHTHGTLATAPASAAAPTTPDGAEEEREKLRGITDQGTMNRLLTSWHKCKPPLRLGQEEPPLMGNGWAGGGPRPPRKEVATYFSKV
–	binds	Myc-tagged CALHM1 (protein, not shown: small tags and cut ends) MMDKFRMIFQFLQSNQESFMNGICGIMALASAQMYSAFDFNCPCLPGYNAAYSAGILLAPPLVLFLLGLVMNNNVSMLAEEWKRPPGRRAKDPAVLRYMFCSMAQRALIAPVVWVAVTLLDGKCFLCAFCTAVPVSALGNGSLAPGLPAPELARLLARVPCPEIYDGDWLLAREVAVRYLRCISQALGWSFVLLTTLLAFVVRSVRPCFTQAAFLKSKYWSHYIDIERKLFDETCTEHAKAFAKVCIQQFFEAMNHDLELGHTHGTLATAPASAAAPTTPDGAEEEREKLRGITDQGTMNRLLTSWHKCKPPLRLGQEEPPLMGNGWAGGGPRPPRKEVATYFSKV
